Data source: PubChem BioAssay AID743121 (NCATS, 2013)

- Screen: 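Genes whose silencing strengthens cell killing by camptothecin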 (primary screen)
- Cell system: MDA-MB-231 cells, a human breast cancer line
- Reagents: single siRNA against human genes, 20 nM siRNA (0.8 pmol per well)
- Timing: 120 h (drug added 48 h after transfection, read 72 h later)
- Challenge: camptothecin 20 nM (about EC30) for 72 h; vehicle 0.1% DMSO in parallel plates
- Read-out: 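CellTiter-Glo ATP signal, scaled to control siRNA as percent viability; sensitisation given as log2 of untreated divided by camptothecin-treated viability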
- Reading the numbers: log2 vehicle/camptothecin viability: higher = stronger sensitisation to camptothecin
- Rule for the call: 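Active genes have an RSA gene-level p-value below 0.001, computed from the ratios of their separate siRNAs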
In all, the deposit lists about 26,000 reagents; shown is an unselected part. 167 of all reagents (0.63%) count as active. 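Calls are per gene from RSA p-values that are not deposited; an individual active-marked siRNA can sensitise only weakly.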 Unmarked entries are inactive. The numbers tell different reagents against one gene apart. Further read-outs or replicates are left out here. Reagent sequences are not shown.

log2 vehicle/camptothecin viability, by gene and reagent
KCNK3 (potassium two pore domain channel subfamily K member 3): #1 -0.124; #2 -0.401; #3 0.148; #4 -0.0269
RARRES1 (retinoic acid receptor responder 1): #1 -0.0991; #2 -0.0558; #3 -0.00766; #4 -0.376
HECTD1 (HECT domain E3 ubiquitin protein ligase 1): #1 0.234; #2 -0.478; #3 -0.0786; #4 -0.0363
TMPRSS11E (transmembrane serine protease 11E): #1 -0.194; #2 -0.31; #3 0.352
CYP3A5 (cytochrome P450 family 3 subfamily A member 5): #1 -0.0371; #2 0.0172; #3 -0.0421

Records listed so far whose target name begins with T or t:
log2 vehicle/camptothecin viability, by gene and reagent
TMPRSS11E (transmembrane serine protease 11E): #1 -0.194; #2 -0.31; #3 0.352

Additional records:
log2 vehicle/camptothecin viability, by gene and reagent
ADRA2A (adrenoceptor alpha 2A): #1 -0.301; #2 -0.699; #3 -0.596; #4 -0.185
OR1C1 (olfactory receptor family 1 subfamily C member 1): #1 0.0996; #2 -0.171; #3 -0.196; #4 0.131
TPK1 (thiamin pyrophosphokinase 1): #1 0.0603; #2 -0.175; #3 -0.654; #4 0.2
